Conditions in all cases: stereoisomer not certain
Assay [1] concerns the target T1, OR52N5 (Homo sapiens) (UniProt Q8NH56).
T1 sequence (whole entry): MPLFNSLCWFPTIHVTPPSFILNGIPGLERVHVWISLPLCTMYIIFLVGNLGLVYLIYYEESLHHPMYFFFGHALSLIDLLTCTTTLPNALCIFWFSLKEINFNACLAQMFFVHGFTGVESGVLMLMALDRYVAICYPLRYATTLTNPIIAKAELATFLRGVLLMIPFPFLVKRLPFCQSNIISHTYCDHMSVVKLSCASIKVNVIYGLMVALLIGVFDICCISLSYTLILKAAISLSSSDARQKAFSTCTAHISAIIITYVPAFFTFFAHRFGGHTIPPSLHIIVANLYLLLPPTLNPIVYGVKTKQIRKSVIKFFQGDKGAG
In outline: (§1)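 Values were gathered from published papers (main text and supplementary material), with extra details requested from the original authors when needed, and checked for typos and inconsistencies. Each receptor–molecule pair is called responsive (active) if the original authors judged the measured signal statistically different from baseline, and non-responsive (inactive) otherwise. Assay methods varied by source, often transient mammalian cell-line luciferase assays. Recorded details include cell line, G-protein, co-transfected protein and tags.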

Protein sequences, listed by entry. Tags and fused reporters are not part of them. Lines headed by an entry give the natural chain unless they say otherwise; changes in a name come on top.
UniProt Q8NGI0: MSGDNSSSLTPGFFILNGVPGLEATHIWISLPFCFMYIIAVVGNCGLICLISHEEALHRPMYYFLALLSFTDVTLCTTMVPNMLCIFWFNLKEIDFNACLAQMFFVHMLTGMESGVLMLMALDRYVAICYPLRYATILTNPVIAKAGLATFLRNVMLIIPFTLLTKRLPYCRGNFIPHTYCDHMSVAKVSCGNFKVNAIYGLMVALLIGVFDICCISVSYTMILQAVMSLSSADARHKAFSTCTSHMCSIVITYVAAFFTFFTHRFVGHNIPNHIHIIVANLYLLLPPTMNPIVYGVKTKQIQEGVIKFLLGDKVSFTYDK
UniProt Q8NGF1: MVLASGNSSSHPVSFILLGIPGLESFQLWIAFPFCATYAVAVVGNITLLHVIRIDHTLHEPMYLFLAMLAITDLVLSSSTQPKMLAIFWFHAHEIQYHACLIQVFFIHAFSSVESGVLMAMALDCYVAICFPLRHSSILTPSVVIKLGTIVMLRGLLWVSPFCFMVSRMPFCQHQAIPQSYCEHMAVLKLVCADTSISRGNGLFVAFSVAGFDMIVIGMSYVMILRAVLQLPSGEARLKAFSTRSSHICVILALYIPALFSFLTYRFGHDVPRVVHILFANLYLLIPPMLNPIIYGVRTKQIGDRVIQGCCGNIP

The target in assay [2] is T2, OR56A1 (Homo sapiens) (UniProt Q8NGH5).
T2 sequence (whole entry): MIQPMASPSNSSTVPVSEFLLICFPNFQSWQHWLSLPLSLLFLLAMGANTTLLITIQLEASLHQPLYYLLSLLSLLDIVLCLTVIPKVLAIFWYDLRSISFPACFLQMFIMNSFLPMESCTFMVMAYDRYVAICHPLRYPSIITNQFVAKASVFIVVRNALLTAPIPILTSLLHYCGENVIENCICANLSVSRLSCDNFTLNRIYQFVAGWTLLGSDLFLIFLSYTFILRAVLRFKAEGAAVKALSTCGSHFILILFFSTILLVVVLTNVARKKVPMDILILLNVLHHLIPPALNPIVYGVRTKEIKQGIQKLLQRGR
An outline of the steps: as §1

The target of assay [3] is T3, OR56A4 (Homo sapiens) (UniProt Q8NGH8).
T3 sequence (whole entry): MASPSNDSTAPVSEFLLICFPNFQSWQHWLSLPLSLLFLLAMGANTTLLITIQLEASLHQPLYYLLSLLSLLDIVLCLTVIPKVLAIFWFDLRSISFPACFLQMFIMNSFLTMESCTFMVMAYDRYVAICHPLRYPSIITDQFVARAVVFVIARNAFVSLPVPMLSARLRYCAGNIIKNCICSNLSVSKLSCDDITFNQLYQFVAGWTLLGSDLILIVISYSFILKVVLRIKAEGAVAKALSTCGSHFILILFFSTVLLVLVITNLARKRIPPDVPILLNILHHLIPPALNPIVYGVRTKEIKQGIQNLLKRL
In outline:
as §1

Assay [4] has as its target T4, OR56A5 (Homo sapiens) (UniProt P0C7T3).
T4 sequence (whole entry): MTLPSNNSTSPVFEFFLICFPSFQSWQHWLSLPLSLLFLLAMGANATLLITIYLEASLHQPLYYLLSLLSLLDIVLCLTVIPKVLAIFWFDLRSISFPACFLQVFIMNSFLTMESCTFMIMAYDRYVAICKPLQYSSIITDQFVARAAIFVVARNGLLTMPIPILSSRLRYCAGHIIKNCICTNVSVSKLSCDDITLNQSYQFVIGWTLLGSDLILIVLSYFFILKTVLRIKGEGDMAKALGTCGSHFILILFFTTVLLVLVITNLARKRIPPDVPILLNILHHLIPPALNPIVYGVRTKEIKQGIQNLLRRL
An outline of the steps: as §1

Assay [5] has as its system T5, OR5A1.
T5 sequence (whole entry): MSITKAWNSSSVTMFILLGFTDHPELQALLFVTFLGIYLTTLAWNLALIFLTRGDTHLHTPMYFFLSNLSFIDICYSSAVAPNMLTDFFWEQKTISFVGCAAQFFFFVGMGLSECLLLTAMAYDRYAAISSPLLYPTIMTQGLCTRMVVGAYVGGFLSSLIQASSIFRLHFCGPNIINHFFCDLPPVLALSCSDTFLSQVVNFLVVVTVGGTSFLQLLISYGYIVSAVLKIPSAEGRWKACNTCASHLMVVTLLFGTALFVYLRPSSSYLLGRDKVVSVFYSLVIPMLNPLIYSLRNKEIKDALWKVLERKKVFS
An outline of the steps:
as §1

Assay [6] deals with T6, OR5A1.
T6 sequence (whole entry): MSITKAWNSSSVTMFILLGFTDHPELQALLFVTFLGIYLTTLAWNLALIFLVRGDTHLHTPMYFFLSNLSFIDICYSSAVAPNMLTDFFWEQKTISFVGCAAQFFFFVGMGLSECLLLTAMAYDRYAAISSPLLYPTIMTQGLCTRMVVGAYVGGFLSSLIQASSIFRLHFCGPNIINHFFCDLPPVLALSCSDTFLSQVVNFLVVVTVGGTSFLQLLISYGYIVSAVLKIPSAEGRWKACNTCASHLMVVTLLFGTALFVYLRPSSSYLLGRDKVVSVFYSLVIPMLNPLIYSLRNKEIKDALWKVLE
An outline of the steps: as §1
This is another data set of the same source.

In assay [7] the test system is T7, OR5A1.
T7 sequence (whole entry): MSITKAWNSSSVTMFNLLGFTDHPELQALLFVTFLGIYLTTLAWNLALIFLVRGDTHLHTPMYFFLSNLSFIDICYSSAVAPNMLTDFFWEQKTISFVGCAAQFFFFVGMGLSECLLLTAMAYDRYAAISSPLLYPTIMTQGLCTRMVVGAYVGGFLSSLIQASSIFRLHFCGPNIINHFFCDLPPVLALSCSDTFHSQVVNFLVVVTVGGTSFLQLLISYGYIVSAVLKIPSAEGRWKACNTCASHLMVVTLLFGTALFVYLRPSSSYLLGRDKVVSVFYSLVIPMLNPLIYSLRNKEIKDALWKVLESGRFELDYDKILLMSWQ
An outline of the steps:
as §1
The source holds these as a separate data set.

Assay [8] addresses T8, OR5A2 (Homo sapiens) (UniProt Q8NGI9).
T8 sequence (whole entry): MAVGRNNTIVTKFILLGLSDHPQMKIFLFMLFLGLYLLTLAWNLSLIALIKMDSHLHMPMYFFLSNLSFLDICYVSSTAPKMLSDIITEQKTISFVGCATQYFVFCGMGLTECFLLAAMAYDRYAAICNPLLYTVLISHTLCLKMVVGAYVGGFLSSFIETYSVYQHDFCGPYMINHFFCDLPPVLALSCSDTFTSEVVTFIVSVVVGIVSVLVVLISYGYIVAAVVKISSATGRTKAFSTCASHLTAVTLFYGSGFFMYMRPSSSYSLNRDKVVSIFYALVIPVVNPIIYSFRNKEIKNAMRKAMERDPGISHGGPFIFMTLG
In outline: as §1

Assay [9] addresses T9, OR5AK2 (Homo sapiens) (UniProt Q8NH90).
T9 sequence (whole entry): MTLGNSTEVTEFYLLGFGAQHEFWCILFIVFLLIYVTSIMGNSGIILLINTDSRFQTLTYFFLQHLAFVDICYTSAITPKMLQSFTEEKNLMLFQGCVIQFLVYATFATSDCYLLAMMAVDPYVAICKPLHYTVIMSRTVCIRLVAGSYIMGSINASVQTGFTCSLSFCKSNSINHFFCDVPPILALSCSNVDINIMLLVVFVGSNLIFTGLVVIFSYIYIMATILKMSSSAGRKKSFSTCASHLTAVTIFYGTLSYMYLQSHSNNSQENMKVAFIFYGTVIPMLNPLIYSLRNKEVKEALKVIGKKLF
An outline of the steps: as §1

Assay [10] deals with T10, OR52N1 (Homo sapiens) (UniProt Q8NH53).
T10 sequence (whole entry): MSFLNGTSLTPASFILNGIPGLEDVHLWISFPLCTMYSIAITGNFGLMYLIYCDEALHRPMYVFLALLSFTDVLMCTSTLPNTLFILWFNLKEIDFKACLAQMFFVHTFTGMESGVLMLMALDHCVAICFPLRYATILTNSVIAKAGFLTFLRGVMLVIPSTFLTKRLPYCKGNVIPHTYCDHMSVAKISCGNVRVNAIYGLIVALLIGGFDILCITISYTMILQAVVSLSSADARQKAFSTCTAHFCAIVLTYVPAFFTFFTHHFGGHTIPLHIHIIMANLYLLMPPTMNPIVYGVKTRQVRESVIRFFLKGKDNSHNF
An outline of the steps: as §1

Assay [11] addresses OR52N2 (Homo sapiens) (UniProt Q8NGI0). An outline of the steps: as §1
For assay [12], the target named is T11, OR52N4 (Homo sapiens) (UniProt Q8NGI2).
T11 sequence (whole entry): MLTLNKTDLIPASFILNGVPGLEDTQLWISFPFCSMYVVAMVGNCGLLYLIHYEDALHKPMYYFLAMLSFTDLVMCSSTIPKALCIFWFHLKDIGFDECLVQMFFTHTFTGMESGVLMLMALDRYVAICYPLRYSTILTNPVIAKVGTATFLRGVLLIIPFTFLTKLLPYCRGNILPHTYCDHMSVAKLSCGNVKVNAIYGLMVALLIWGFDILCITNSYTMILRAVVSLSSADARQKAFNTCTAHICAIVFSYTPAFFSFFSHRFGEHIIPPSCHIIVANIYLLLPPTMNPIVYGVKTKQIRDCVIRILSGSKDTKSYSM
An outline of the steps:
as §1

Assay [13] concerns the target OR52R1 (Homo sapiens) (UniProt Q8NGF1). In outline: as §1
Assay [14] deals with T12, OR52W1 (Homo sapiens) (UniProt Q6IF63).
T12 sequence (whole entry): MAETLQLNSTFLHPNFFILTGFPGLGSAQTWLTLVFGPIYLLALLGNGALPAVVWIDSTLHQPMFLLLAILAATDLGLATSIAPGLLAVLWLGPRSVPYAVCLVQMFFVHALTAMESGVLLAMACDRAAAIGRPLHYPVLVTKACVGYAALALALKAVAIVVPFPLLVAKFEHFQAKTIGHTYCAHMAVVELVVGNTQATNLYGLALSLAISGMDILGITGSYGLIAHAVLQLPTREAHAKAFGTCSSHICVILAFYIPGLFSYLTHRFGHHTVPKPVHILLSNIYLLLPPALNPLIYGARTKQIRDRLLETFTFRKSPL
In outline: as §1

Assay [15] deals with T13, OR56A3 (Homo sapiens) (UniProt Q8NH54).
T13 sequence (whole entry): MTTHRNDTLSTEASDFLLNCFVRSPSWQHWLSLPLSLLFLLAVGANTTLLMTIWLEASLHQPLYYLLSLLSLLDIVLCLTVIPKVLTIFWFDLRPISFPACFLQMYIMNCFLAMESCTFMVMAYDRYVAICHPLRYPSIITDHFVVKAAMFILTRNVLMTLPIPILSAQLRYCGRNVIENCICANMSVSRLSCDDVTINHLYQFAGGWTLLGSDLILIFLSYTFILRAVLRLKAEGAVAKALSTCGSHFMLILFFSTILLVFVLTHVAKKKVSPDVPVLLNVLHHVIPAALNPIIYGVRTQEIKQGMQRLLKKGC
An outline of the steps:
as §1

The target of assay [16] is T14, OR56B1 (Homo sapiens) (UniProt Q8NGI3).
T14 sequence (whole entry): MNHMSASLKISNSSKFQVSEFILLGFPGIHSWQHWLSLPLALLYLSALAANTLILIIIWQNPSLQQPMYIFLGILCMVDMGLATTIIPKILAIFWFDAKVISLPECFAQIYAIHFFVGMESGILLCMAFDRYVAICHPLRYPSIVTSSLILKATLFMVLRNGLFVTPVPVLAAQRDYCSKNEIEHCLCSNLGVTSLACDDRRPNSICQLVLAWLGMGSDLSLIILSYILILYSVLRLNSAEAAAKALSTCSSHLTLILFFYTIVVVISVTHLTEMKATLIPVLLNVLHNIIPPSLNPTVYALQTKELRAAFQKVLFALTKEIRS
In outline:
as §1

The target in assay [17] is T15, OR56B4 (Homo sapiens) (UniProt Q8NH76).
T15 sequence (whole entry): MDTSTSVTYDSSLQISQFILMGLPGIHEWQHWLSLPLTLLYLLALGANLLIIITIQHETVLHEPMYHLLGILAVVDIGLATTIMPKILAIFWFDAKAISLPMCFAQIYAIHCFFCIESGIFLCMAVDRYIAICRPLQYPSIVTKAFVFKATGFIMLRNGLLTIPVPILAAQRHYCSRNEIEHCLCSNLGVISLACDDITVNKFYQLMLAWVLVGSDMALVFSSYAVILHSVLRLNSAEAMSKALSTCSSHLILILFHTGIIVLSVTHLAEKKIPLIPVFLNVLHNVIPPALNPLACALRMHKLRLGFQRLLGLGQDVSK
An outline of the steps: as §1

The list shows a part of the results, in another mix than the full data. Calls are pooled over several reports, among them a noisy single-well screen. Some of the results follow.

Regarding `C=CCc1ccc(OC(C)=O)c(OC)c1`, the “odorant receptor agonist call” value in assay [1], in [3], in [4], in [6] and in assay [8] was “active” in each case. In addition, the “odorant receptor agonist call” value in [2], in assay [5], in [7] and in [9] was “inactive” throughout.
For the compound `CC(=O)C(C)=O`, the “odorant receptor agonist call” value in assay [10], in assay [11], in assay [12], in [1], in [13] and in assay [2] was “inactive” each time. Further, the “odorant receptor agonist call” value in assay [15], in [3], in assay [4], in assay [16], in assay [17] and in [5] was “inactive” in each case. The “odorant receptor agonist call” value in assay [6], in [7], in [8] and in [9] was “inactive” in each case. Moreover, the “odorant receptor agonist call” value in assay [14] was “active”.
For `CCC1(O)C2(C)CCC(C2)C1(C)C` (centres undefined), the “odorant receptor agonist call” value in assay [1], in assay [2], in assay [3], in assay [4], in [5] and in [6] was “inactive” in each case. In addition, the “odorant receptor agonist call” value in [7], in assay [8] and in assay [9] was “inactive” each time.
For the compound `CC12CCC(CC1)C(C)(C)O2`, the “odorant receptor agonist call” value in assay [1], in assay [2], in [3], in [4], in assay [5] and in [6] was “inactive” each time. For the same compound, the “odorant receptor agonist call” value in [7], in assay [8] and in assay [9] was “inactive” each time.
In the case of `c1ccc(Oc2ccccc2)cc1`, the “odorant receptor agonist call” value in assay [1], in assay [2], in assay [3], in assay [4], in assay [5] and in assay [6] was “inactive” each time. The “odorant receptor agonist call” value in [7], in assay [8] and in assay [9] was “inactive” in each case.
For `CC(=O)c1ccccc1`, the “odorant receptor agonist call” value in [2], in assay [5], in assay [6], in assay [7] and in assay [9] was “inactive” in each case. Also, the “odorant receptor agonist call” value in assay [8] was “active”.

For the origin of these results see the M2OR odorant receptor database.
